“And” between values parts separate entries of the source, which are not always exact repeats. Equal entries are not always repeated. The inconclusive results got no clear call from the source; some entries with a clear call stand among them for comparison. The source made the active and inactive calls. No rule for the calls is given here.
Test: PubChem AID 493064
Settings: C. albicans CaCi-8 + fluconazole, Alamar Blue growth, 48 h; at 26 µM (top of the series) unless noted

SMILES | activity change, negative = inhibition
O=C(O)Cn1nc(-c2ccccc2)c2ccccc21 | inactive: -17.8%
COC(=O)Cn1nc(-c2ccc(C)cc2)c2ccccc21 | inconclusive: -87.9%
O=C(Cn1c2ccccc2c2nc3n(c(=O)c21)CCS3)N1CCOCC1 | inconclusive: -18.8%
O=C(Cn1c2ccccc2c2nc3n(c(=O)c21)CCS3)N1CCCCC1 | inconclusive: -7.8%
O=C(C1CCCCC1)N1CCN(c2ccccn2)CC1 | inconclusive: -11.2%
COC(=O)Cn1nc(C)c2ccccc21 | inactive: -17.2%
O=C(Cn1c2ccccc2c2nc3n(c(=O)c21)CCS3)N1CCCC1 | inconclusive: -26.9% and inconclusive: -0.094%
COC(=O)Cn1nc(-c2ccccc2)c2cc(Cl)ccc21 | inconclusive: -92.8%
O=C(Cn1c2ccc(F)cc2c2nc3n(c(=O)c21)CCS3)N1CCCCC1 | inactive: 8.36%
O=C(c1ccc(Cl)cc1)N1CCN(c2cccc(C(F)(F)F)n2)CC1 | inactive: -8.21%
O=c1c2[nH]c3ccc(F)cc3c2nc2n1CCS2 | inconclusive: -72.8%
COCCC(=O)N1CCN(c2ccccn2)CC1 | inconclusive: -12.4%
CCN(CC)C(=O)Cn1c2ccc(F)cc2c2nc3n(c(=O)c21)CCS3 | inconclusive: 7.98%
O=C(Cn1nc(-c2ccccc2)c2ccccc21)NCc1ccc(Cl)cc1 | inactive: -6.6%
Cc1ccnc(N2CCN(C(=O)c3ccc(Cl)cc3)CC2)c1 | inactive: -6.71%
O=C(Cn1c2ccc(F)cc2c2nc3n(c(=O)c21)CCS3)N1CCCCCC1 | inconclusive: -8.86%
COc1ccc2c(c1)c1nc3n(c(=O)c1n2CC(=O)N1CCC(Cc2ccccc2)CC1)CCS3 | inconclusive: -0.719%
CCCCC(=O)N1CCN(c2ccccn2)CC1 | inactive: -12.5%
O=C(Cn1c2ccc(F)cc2c2nc3n(c(=O)c21)CCS3)N1CCCC1 | inconclusive: 5.95%
N#Cc1cccnc1N1CCN(C(=O)c2ccc(Cl)cc2)CC1 | inconclusive: -15.1%
CCOC(=O)c1c2ccccc2nn1Cc1ccc(Cl)cc1 | inactive: 5.94%
CCN(CC)C(=O)Cn1c2ccccc2c2nc3n(c(=O)c21)CCS3 | inactive: 8.8% and inactive: 7.89%
O=C(Cn1c2ccccc2c2nc3n(c(=O)c21)CCS3)NCCc1ccc(Cl)cc1 | inconclusive: -0.493%

Rewritten comma-delimited: part of the list above.
SMILES,"activity change, negative = inhibition"
O=C(O)Cn1nc(-c2ccccc2)c2ccccc21,inactive: -17.8%
O=C(Cn1c2ccccc2c2nc3n(c(=O)c21)CCS3)N1CCOCC1,inconclusive: -18.8%
O=c1c2[nH]c3ccc(F)cc3c2nc2n1CCS2,inconclusive: -72.8%
COCCC(=O)N1CCN(c2ccccn2)CC1,inconclusive: -12.4%
COc1ccc2c(c1)c1nc3n(c(=O)c1n2CC(=O)N1CCC(Cc2ccccc2)CC1)CCS3,inconclusive: -0.719%
CCOC(=O)c1c2ccccc2nn1Cc1ccc(Cl)cc1,inactive: 5.94%

From PubChem BioAssay AID493064 (Broad Institute, 2011)
